Assay results taken from PMC8060413.
Results are given in words; binding and its absence hold for the method and conditions named. Some entries that bind do so weakly or less than the wild type.

T1: Ssz1 C81S C86S (subunit of the cysteine RAC variants) (yeast) (UniProt P38788)
T1 sequence: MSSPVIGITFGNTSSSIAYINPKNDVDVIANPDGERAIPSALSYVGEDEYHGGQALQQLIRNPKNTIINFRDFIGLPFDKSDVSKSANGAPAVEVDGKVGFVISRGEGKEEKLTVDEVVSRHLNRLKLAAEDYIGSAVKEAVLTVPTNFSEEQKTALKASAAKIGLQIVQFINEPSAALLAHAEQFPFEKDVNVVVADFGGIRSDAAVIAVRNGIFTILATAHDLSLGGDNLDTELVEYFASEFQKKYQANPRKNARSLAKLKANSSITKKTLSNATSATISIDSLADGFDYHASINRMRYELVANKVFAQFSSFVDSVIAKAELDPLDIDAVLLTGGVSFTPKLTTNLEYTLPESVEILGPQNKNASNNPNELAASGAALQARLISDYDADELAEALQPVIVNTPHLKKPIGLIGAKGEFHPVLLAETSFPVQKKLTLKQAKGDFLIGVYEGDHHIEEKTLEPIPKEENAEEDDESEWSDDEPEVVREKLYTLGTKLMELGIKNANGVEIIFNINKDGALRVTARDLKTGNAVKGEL

B1: Zuo1 C167S K351C S395C (protein, UniProt P32527 1-433)
chain: MFSLPTLTSDITVEVNSSATKTPFVRRPVEPVGKFFLQHAQRTLRNHTWSEFERIEAEKNVKTVDESNVDPDELLFDTELADEDLLTHDARDWKTADLYAAMGLSKLRFRATESQIIKAHRKQVVKYHPDKQSAAGGSLDQDGFFKIIQKAFETLTDSNKRAQYDSSDFVADVPPPKKGTDYDFYEAWGPVFEAEARFSKKTPIPSLGNKDSSKKEVEQFYAFWHRFDSWRTFEFLDEDVPDDSSNRDHKRYIERKNKAARDKKKTADNARLVKLVERAVSEDPRIKMFKEEEKKEKERRKWEREAGARAEAEAKAKAEAEAKAKAESEAKANASAKADKKKAKEAAKAACKKNKRAIRNSAKEADYFGDADKATTIDEQVGLIVDSLNDEELVCTADKIKANAAGAKEVLKESAKTIVDSGKLPSSLLSYFV
B2: Zuo1 C167S S328C K351C (protein, UniProt P32527 1-433)
chain: MFSLPTLTSDITVEVNSSATKTPFVRRPVEPVGKFFLQHAQRTLRNHTWSEFERIEAEKNVKTVDESNVDPDELLFDTELADEDLLTHDARDWKTADLYAAMGLSKLRFRATESQIIKAHRKQVVKYHPDKQSAAGGSLDQDGFFKIIQKAFETLTDSNKRAQYDSSDFVADVPPPKKGTDYDFYEAWGPVFEAEARFSKKTPIPSLGNKDSSKKEVEQFYAFWHRFDSWRTFEFLDEDVPDDSSNRDHKRYIERKNKAARDKKKTADNARLVKLVERAVSEDPRIKMFKEEEKKEKERRKWEREAGARAEAEAKAKAEAEAKAKAECEAKANASAKADKKKAKEAAKAACKKNKRAIRNSAKEADYFGDADKATTIDEQVGLIVDSLNDEELVSTADKIKANAAGAKEVLKESAKTIVDSGKLPSSLLSYFV
B3: Zuo1 C167S K363C (protein, UniProt P32527 1-433)
chain: MFSLPTLTSDITVEVNSSATKTPFVRRPVEPVGKFFLQHAQRTLRNHTWSEFERIEAEKNVKTVDESNVDPDELLFDTELADEDLLTHDARDWKTADLYAAMGLSKLRFRATESQIIKAHRKQVVKYHPDKQSAAGGSLDQDGFFKIIQKAFETLTDSNKRAQYDSSDFVADVPPPKKGTDYDFYEAWGPVFEAEARFSKKTPIPSLGNKDSSKKEVEQFYAFWHRFDSWRTFEFLDEDVPDDSSNRDHKRYIERKNKAARDKKKTADNARLVKLVERAVSEDPRIKMFKEEEKKEKERRKWEREAGARAEAEAKAKAEAEAKAKAESEAKANASAKADKKKAKEAAKAAKKKNKRAIRNSACEADYFGDADKATTIDEQVGLIVDSLNDEELVSTADKIKANAAGAKEVLKESAKTIVDSGKLPSSLLSYFV
B4: Zuo1 C167S K337C K351C (protein, UniProt P32527 1-433)
chain: MFSLPTLTSDITVEVNSSATKTPFVRRPVEPVGKFFLQHAQRTLRNHTWSEFERIEAEKNVKTVDESNVDPDELLFDTELADEDLLTHDARDWKTADLYAAMGLSKLRFRATESQIIKAHRKQVVKYHPDKQSAAGGSLDQDGFFKIIQKAFETLTDSNKRAQYDSSDFVADVPPPKKGTDYDFYEAWGPVFEAEARFSKKTPIPSLGNKDSSKKEVEQFYAFWHRFDSWRTFEFLDEDVPDDSSNRDHKRYIERKNKAARDKKKTADNARLVKLVERAVSEDPRIKMFKEEEKKEKERRKWEREAGARAEAEAKAKAEAEAKAKAESEAKANASACADKKKAKEAAKAACKKNKRAIRNSAKEADYFGDADKATTIDEQVGLIVDSLNDEELVSTADKIKANAAGAKEVLKESAKTIVDSGKLPSSLLSYFV
B5: Zuo1 C167S K351C K363C (protein, UniProt P32527 1-433)
chain: MFSLPTLTSDITVEVNSSATKTPFVRRPVEPVGKFFLQHAQRTLRNHTWSEFERIEAEKNVKTVDESNVDPDELLFDTELADEDLLTHDARDWKTADLYAAMGLSKLRFRATESQIIKAHRKQVVKYHPDKQSAAGGSLDQDGFFKIIQKAFETLTDSNKRAQYDSSDFVADVPPPKKGTDYDFYEAWGPVFEAEARFSKKTPIPSLGNKDSSKKEVEQFYAFWHRFDSWRTFEFLDEDVPDDSSNRDHKRYIERKNKAARDKKKTADNARLVKLVERAVSEDPRIKMFKEEEKKEKERRKWEREAGARAEAEAKAKAEAEAKAKAESEAKANASAKADKKKAKEAAKAACKKNKRAIRNSACEADYFGDADKATTIDEQVGLIVDSLNDEELVSTADKIKANAAGAKEVLKESAKTIVDSGKLPSSLLSYFV
B6: Zuo1 C167S K351C (protein, UniProt P32527 1-433)
chain: MFSLPTLTSDITVEVNSSATKTPFVRRPVEPVGKFFLQHAQRTLRNHTWSEFERIEAEKNVKTVDESNVDPDELLFDTELADEDLLTHDARDWKTADLYAAMGLSKLRFRATESQIIKAHRKQVVKYHPDKQSAAGGSLDQDGFFKIIQKAFETLTDSNKRAQYDSSDFVADVPPPKKGTDYDFYEAWGPVFEAEARFSKKTPIPSLGNKDSSKKEVEQFYAFWHRFDSWRTFEFLDEDVPDDSSNRDHKRYIERKNKAARDKKKTADNARLVKLVERAVSEDPRIKMFKEEEKKEKERRKWEREAGARAEAEAKAKAEAEAKAKAESEAKANASAKADKKKAKEAAKAACKKNKRAIRNSAKEADYFGDADKATTIDEQVGLIVDSLNDEELVSTADKIKANAAGAKEVLKESAKTIVDSGKLPSSLLSYFV
B7: Zuo1 C167S K351C T417C (protein, UniProt P32527 1-433)
chain: MFSLPTLTSDITVEVNSSATKTPFVRRPVEPVGKFFLQHAQRTLRNHTWSEFERIEAEKNVKTVDESNVDPDELLFDTELADEDLLTHDARDWKTADLYAAMGLSKLRFRATESQIIKAHRKQVVKYHPDKQSAAGGSLDQDGFFKIIQKAFETLTDSNKRAQYDSSDFVADVPPPKKGTDYDFYEAWGPVFEAEARFSKKTPIPSLGNKDSSKKEVEQFYAFWHRFDSWRTFEFLDEDVPDDSSNRDHKRYIERKNKAARDKKKTADNARLVKLVERAVSEDPRIKMFKEEEKKEKERRKWEREAGARAEAEAKAKAEAEAKAKAESEAKANASAKADKKKAKEAAKAACKKNKRAIRNSAKEADYFGDADKATTIDEQVGLIVDSLNDEELVSTADKIKANAAGAKEVLKESAKCIVDSGKLPSSLLSYFV
B8: Zuo1 C167S S335C K351C (protein, UniProt P32527 1-433)
chain: MFSLPTLTSDITVEVNSSATKTPFVRRPVEPVGKFFLQHAQRTLRNHTWSEFERIEAEKNVKTVDESNVDPDELLFDTELADEDLLTHDARDWKTADLYAAMGLSKLRFRATESQIIKAHRKQVVKYHPDKQSAAGGSLDQDGFFKIIQKAFETLTDSNKRAQYDSSDFVADVPPPKKGTDYDFYEAWGPVFEAEARFSKKTPIPSLGNKDSSKKEVEQFYAFWHRFDSWRTFEFLDEDVPDDSSNRDHKRYIERKNKAARDKKKTADNARLVKLVERAVSEDPRIKMFKEEEKKEKERRKWEREAGARAEAEAKAKAEAEAKAKAESEAKANACAKADKKKAKEAAKAACKKNKRAIRNSAKEADYFGDADKATTIDEQVGLIVDSLNDEELVSTADKIKANAAGAKEVLKESAKTIVDSGKLPSSLLSYFV
B9: Zuo1 C167S K363C S387C (protein, UniProt P32527 1-433)
chain: MFSLPTLTSDITVEVNSSATKTPFVRRPVEPVGKFFLQHAQRTLRNHTWSEFERIEAEKNVKTVDESNVDPDELLFDTELADEDLLTHDARDWKTADLYAAMGLSKLRFRATESQIIKAHRKQVVKYHPDKQSAAGGSLDQDGFFKIIQKAFETLTDSNKRAQYDSSDFVADVPPPKKGTDYDFYEAWGPVFEAEARFSKKTPIPSLGNKDSSKKEVEQFYAFWHRFDSWRTFEFLDEDVPDDSSNRDHKRYIERKNKAARDKKKTADNARLVKLVERAVSEDPRIKMFKEEEKKEKERRKWEREAGARAEAEAKAKAEAEAKAKAESEAKANASAKADKKKAKEAAKAAKKKNKRAIRNSACEADYFGDADKATTIDEQVGLIVDCLNDEELVSTADKIKANAAGAKEVLKESAKTIVDSGKLPSSLLSYFV
B10: Zuo1 C167S K363C T417C (protein, UniProt P32527 1-433)
chain: MFSLPTLTSDITVEVNSSATKTPFVRRPVEPVGKFFLQHAQRTLRNHTWSEFERIEAEKNVKTVDESNVDPDELLFDTELADEDLLTHDARDWKTADLYAAMGLSKLRFRATESQIIKAHRKQVVKYHPDKQSAAGGSLDQDGFFKIIQKAFETLTDSNKRAQYDSSDFVADVPPPKKGTDYDFYEAWGPVFEAEARFSKKTPIPSLGNKDSSKKEVEQFYAFWHRFDSWRTFEFLDEDVPDDSSNRDHKRYIERKNKAARDKKKTADNARLVKLVERAVSEDPRIKMFKEEEKKEKERRKWEREAGARAEAEAKAKAEAEAKAKAESEAKANASAKADKKKAKEAAKAAKKKNKRAIRNSACEADYFGDADKATTIDEQVGLIVDSLNDEELVSTADKIKANAAGAKEVLKESAKCIVDSGKLPSSLLSYFV
B11: Zuo1 C167S K363C S395C (protein, UniProt P32527 1-433)
chain: MFSLPTLTSDITVEVNSSATKTPFVRRPVEPVGKFFLQHAQRTLRNHTWSEFERIEAEKNVKTVDESNVDPDELLFDTELADEDLLTHDARDWKTADLYAAMGLSKLRFRATESQIIKAHRKQVVKYHPDKQSAAGGSLDQDGFFKIIQKAFETLTDSNKRAQYDSSDFVADVPPPKKGTDYDFYEAWGPVFEAEARFSKKTPIPSLGNKDSSKKEVEQFYAFWHRFDSWRTFEFLDEDVPDDSSNRDHKRYIERKNKAARDKKKTADNARLVKLVERAVSEDPRIKMFKEEEKKEKERRKWEREAGARAEAEAKAKAEAEAKAKAESEAKANASAKADKKKAKEAAKAAKKKNKRAIRNSACEADYFGDADKATTIDEQVGLIVDSLNDEELVCTADKIKANAAGAKEVLKESAKTIVDSGKLPSSLLSYFV

Target: T1, Ssz1 C81S C86S (subunit of the cysteine RAC variants) (yeast)
Assay: co-purification (Ni-IDA affinity, anion exchange, size exclusion); Ssz1 and Zuo1 co-expressed in E. coli; complex held on Ni-IDA by His6-SUMO on Ssz1, washed with 100 mM and 1 M KAc, eluted with 300 mM imidazole; His6-SUMO removed by Ulp1; then ResourceQ and HiLoad Superdex 200 in 40 mM HEPES pH 7.4, 100 mM KAc, 5 mM MgCl2, 5% glycerol

binding, binds:
B1
B2
B3
B4
B5
B6
B7
B8
B9
B10
B11
